# Assay results as given in PMC7819943, “Rice protein-binding microarrays: a tool to detect cis-acting elements near promoter regions in rice”.
# The other results are listed elsewhere or left out.
# Target: T1, OsSMF1 (Oryza sativa, UniProt Q6ZLB0 1-436)
# T1 sequence: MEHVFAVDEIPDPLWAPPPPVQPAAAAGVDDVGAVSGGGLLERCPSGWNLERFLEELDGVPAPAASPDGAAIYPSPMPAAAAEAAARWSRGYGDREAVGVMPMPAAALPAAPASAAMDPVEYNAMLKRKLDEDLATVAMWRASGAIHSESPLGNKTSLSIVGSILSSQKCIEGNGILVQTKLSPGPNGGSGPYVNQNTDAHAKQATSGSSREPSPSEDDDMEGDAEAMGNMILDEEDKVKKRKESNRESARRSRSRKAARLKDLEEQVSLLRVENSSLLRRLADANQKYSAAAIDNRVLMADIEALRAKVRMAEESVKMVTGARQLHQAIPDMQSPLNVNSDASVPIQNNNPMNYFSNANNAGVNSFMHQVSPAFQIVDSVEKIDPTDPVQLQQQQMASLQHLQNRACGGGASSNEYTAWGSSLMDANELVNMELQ
# Assay: protein-binding microarray (RPBM); PBS, 2% BSA, 51.3 ng/ul salmon testes DNA, 50 uM zinc acetate, 200 nM TF, 25 C, 1 h; high values mean tight binding
# Details: protein: recombinant; tags: N-terminal polyhistidine and DsRed monomer fusion (pET32a); chain copies: 2; label: CyDye5-dUTP incorporated in the synthesized complementary strand; 3' TTTTT single-stranded linker to array surface; dsDNA, one strand shown
# How it was run: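 Transcription factors were made in E. coli BL21-CodonPlus as N-terminal fusions to a polyhistidine tag and DsRed, then purified on Ni–NTA. After primer extension with Cy5-dUTP and blocking with 2% BSA, a custom Agilent array was exposed for 1 h at 25 °C to 200 nM protein in PBS, 2% BSA, salmon testes DNA and 50 µM zinc acetate. Washed arrays were scanned on an Axon 4000B, and the binding signal is per-feature fluorescence intensity in arbitrary units.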
row,Sequence,binding signal
1,CTTCTCGTCGGCTGCCACGCCGGCGCCCTGCACTGCAAGCCGGAGTCACCTAGTGCAG,4130 fluorescence intensity (a.u.)
2,GCTACTCCGCGTCGCCACGTCACTGAACGGGTTGCTCCGCCGGAGTCACCTAGTGCAG,13500 fluorescence intensity (a.u.)
3,AGGAACCTCAAGGTCTGCCACCACAGCGTGATTTTGATCACGGAGTCACCTAGTGCAG,3310 fluorescence intensity (a.u.)
4,GGGTACGTAGATGGAACTATTAGCGTATGATTAATTAAGTCGGAGTCACCTAGTGCAG,31000 fluorescence intensity (a.u.)
5,GCATATTATGTGCTTCCTCGTCAGGCCTCTGTAATGATCACGGAGTCACCTAGTGCAG,3870 fluorescence intensity (a.u.)
6,GAAACGCGTGATGAGTCAACAGATGACTCCGGTTCGGCCTCGGAGTCACCTAGTGCAG,11100 fluorescence intensity (a.u.)
7,TTCAATCTATGCGGGCATCATCTCTCTTCGCGGAATCGGTCGGAGTCACCTAGTGCAG,3440 fluorescence intensity (a.u.)
8,CAGCCGCCACGTCGGATAAAACCGGATTCAGAACCACCGACGGAGTCACCTAGTGCAG,6480 fluorescence intensity (a.u.)
9,TGGAGAGAAATAGGAAAGTGGGGAGAGGTGATGAGTGATTCGGAGTCACCTAGTGCAG,3680 fluorescence intensity (a.u.)
10,GCGACACAGCGGCGGCGGCGAGATCGTCTGCGTCTTCTTCCGGAGTCACCTAGTGCAG,3240 fluorescence intensity (a.u.)
11,TAAACTTCGGTGGCATGTCATCATCTTCAAACTCATCTTTCGGAGTCACCTAGTGCAG,4670 fluorescence intensity (a.u.)
12,CCAGCGTCCCAGCAGGGCAGTGACTTGGCAAACTATGCGCCGGAGTCACCTAGTGCAG,4860 fluorescence intensity (a.u.)
13,GGCGCCAGCCCCGGTGCCGGGGAGTGTGGCGGAGCGGGAGCGGAGTCACCTAGTGCAG,3910 fluorescence intensity (a.u.)
14,GGCTTACTGACATGTGGGGCCACGTGGATCCCACGCTGAGCGGAGTCACCTAGTGCAG,16200 fluorescence intensity (a.u.)
15,TTCCCGACCCCACCCCTCGGGCCCACGTGTCGGCGTGAGACGGAGTCACCTAGTGCAG,6940 fluorescence intensity (a.u.)
16,GACTTATCAGTTTCAGTTAATCTCATGTGGGCAACCAGAGCGGAGTCACCTAGTGCAG,3230 fluorescence intensity (a.u.)
17,CTTGGACCAAGCCGCCACCGTTTATATCCATTTGCCCACCCGGAGTCACCTAGTGCAG,3480 fluorescence intensity (a.u.)
18,GCGCCGGCGAGGGCGTGGCTCACGTGTGCGGTATGGGCAGCGGAGTCACCTAGTGCAG,4060 fluorescence intensity (a.u.)
19,GCGATCCAGCTATCCACGTGGCCAGCTTGGCTGCTCTTTCCGGAGTCACCTAGTGCAG,20900 fluorescence intensity (a.u.)
20,TCCTCGTAGGCTGATTGGTTTGAATACTTGAATGGTCAAGCGGAGTCACCTAGTGCAG,3290 fluorescence intensity (a.u.)
21,GAACTACTAAACGGTACGTCTTTTCGTTTAAAAGAATATCCGGAGTCACCTAGTGCAG,39400 fluorescence intensity (a.u.)

# Fetched one by one from the entries so far:
row,Sequence,binding signal
3,AGGAACCTCAAGGTCTGCCACCACAGCGTGATTTTGATCACGGAGTCACCTAGTGCAG,3310 fluorescence intensity (a.u.)
2,GCTACTCCGCGTCGCCACGTCACTGAACGGGTTGCTCCGCCGGAGTCACCTAGTGCAG,13500 fluorescence intensity (a.u.)
1,CTTCTCGTCGGCTGCCACGCCGGCGCCCTGCACTGCAAGCCGGAGTCACCTAGTGCAG,4130 fluorescence intensity (a.u.)

# (list continues)

row,Sequence,binding signal
1,CCTTACCAGATGTTTGCCACGACATGGGCAACGTCATTGCCGGAGTCACCTAGTGCAG,6060 fluorescence intensity (a.u.)
2,CGGCGGCGTCCGAGTGTGTGTGTGTATGTAATGGACGCCGCGGAGTCACCTAGTGCAG,4110 fluorescence intensity (a.u.)
3,TTCAACCCATGACAATTGACAACCGGACAGGTGTGGGCGTCGGAGTCACCTAGTGCAG,4020 fluorescence intensity (a.u.)
4,GCATCCGTGCCATTTCATCCCTATTTAATCGTCACATCACCGGAGTCACCTAGTGCAG,3560 fluorescence intensity (a.u.)
5,ACCATCTGCCTGAAACTTGTGACGAAAGATCCACTTGCCGCGGAGTCACCTAGTGCAG,5790 fluorescence intensity (a.u.)
6,GAGGAGGGGAGCCGGCGGTGGCAACGGCCGATGGATAGGCCGGAGTCACCTAGTGCAG,3380 fluorescence intensity (a.u.)
7,GCGGCGGCCTCCTTCTCCACCACCTTCGTGTTCGCCATCGCGGAGTCACCTAGTGCAG,3240 fluorescence intensity (a.u.)
8,ACGGCCGTCGCCCGAGAGCGAACGGCCGTCTGCCACGTCACGGAGTCACCTAGTGCAG,18400 fluorescence intensity (a.u.)
9,TCTGTAATCGTGGTGTTCATGTGTGTGAAATTGATGTTTTCGGAGTCACCTAGTGCAG,3840 fluorescence intensity (a.u.)
10,GCCGAAAATATCTGGGCTGTAGCTTTTGATGGGCTAATGTCGGAGTCACCTAGTGCAG,19400 fluorescence intensity (a.u.)
11,CATCGGTCATGGTGGCGTTGGTCATGTTGGCATGGCCGTCCGGAGTCACCTAGTGCAG,44000 fluorescence intensity (a.u.)
12,CAAATAGCTTGCCACACCACGCTCATACACAAATTATGCACGGAGTCACCTAGTGCAG,3410 fluorescence intensity (a.u.)
13,GCATGCAGGGCATGGCGAGACGGTGACGTGCTCCAAGGCGCGGAGTCACCTAGTGCAG,4760 fluorescence intensity (a.u.)
14,TCGAGTTGGCCGGCGGCGAGGCTTGGGGACGGCGGGGTGGCGGAGTCACCTAGTGCAG,4730 fluorescence intensity (a.u.)
15,TGGATCCAGTTGCATGTATTATGTAAGAAATAAAATGTTGCGGAGTCACCTAGTGCAG,3920 fluorescence intensity (a.u.)
16,AAAGCAACAGCAGCCCAGCACACCACAGCACAGCGCCGCTCGGAGTCACCTAGTGCAG,3180 fluorescence intensity (a.u.)
17,GGAGAGGAGGGGAGAGGGTATGACGTGGCCAGCTGACATGCGGAGTCACCTAGTGCAG,15700 fluorescence intensity (a.u.)
18,GGCAGTGCGGCGGCGGCGACTTCCGGCTGCGTCGGCGGAACGGAGTCACCTAGTGCAG,20000 fluorescence intensity (a.u.)
19,AATCTGCGTAGGTACATCCTAAGAAGATATTTTGCGTTCACGGAGTCACCTAGTGCAG,3410 fluorescence intensity (a.u.)
20,TACACCTGCCACTGCTGCTGACCCTGCCAACCCCAACAAGCGGAGTCACCTAGTGCAG,3640 fluorescence intensity (a.u.)
21,AACCTGCACGCTCATGTTGTTGTTTTGTGAAGATGCAACTCGGAGTCACCTAGTGCAG,3390 fluorescence intensity (a.u.)
